Entries after “also recorded” stand apart in the source; their conditions may differ. At least one compound was matched to its structure with a doubt left.
Columns and labels:
[1] = tested on: Splenic naïve (CD44loCD62Lhi) CD4+ T cells; test: Treg induction in vitro (FACS); type: cell-based; conditions: FIG. 1
From the text: First, to gain mechanistic insight into the induction of Tregs by bacteria belonging to Clostridium Clusters IV, XIVa, and XVIII, germ-free mice were colonized with a cocktail of bacteria comprising bacterial strains belonging to Clostridium Cluster IV, bacterial strains belonging to Clostridium Cluster XIVa, and bacterial strains belonging to Clostridium Cluster XVIII (“Clostridium-colonized mice”). To identify metabolites potentially involved in Treg induction, the hundreds of metabolites present in the luminal composition of Clostridium-colonized, ex-germ free mice were painstakingly investigated with NMR-based metabolome analysis coupled with principal component analysis (PCA). […] The influence of acetate, propionate, and butyrate on Treg induction in vitro was measured as follows: Splenic naïve (CD44^loCD62L^hi) CD4+ T cells were stimulated with anti-CD3 and anti-CD28 mAb-coated beads and cultured in the presence of T-cell antigen receptor signaling and TGF-β with or without each of these short-chain fatty acids listed above.

The chains behind the UniProt entries cited, without tags or fusion partners.
UniProt Q8TDS4, whole entry, species assumed: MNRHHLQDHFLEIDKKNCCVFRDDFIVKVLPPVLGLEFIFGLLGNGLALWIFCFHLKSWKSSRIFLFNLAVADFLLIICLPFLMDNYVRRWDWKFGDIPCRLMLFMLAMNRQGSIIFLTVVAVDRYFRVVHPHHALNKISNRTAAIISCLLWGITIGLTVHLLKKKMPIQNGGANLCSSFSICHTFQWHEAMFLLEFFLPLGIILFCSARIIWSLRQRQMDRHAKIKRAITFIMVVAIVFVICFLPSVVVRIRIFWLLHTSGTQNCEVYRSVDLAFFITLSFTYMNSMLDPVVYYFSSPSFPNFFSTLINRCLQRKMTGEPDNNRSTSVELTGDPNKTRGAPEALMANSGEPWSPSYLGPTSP

[2] = tested on: Foxp3 gene locus in CD4+ T cells; test: ChIP-PCR analysis of histone H3 acetylation; type: cell-based; conditions: anti-acetyl histone H3 antibody; T cells cultured with or without butyrate; FIG. 2
GPR109A = GPR109A (Homo sapiens, UniProt Q8TDS4); conditions: as previously shown in the art; cited from earlier work

CCCC(=O)O [butyrate]
differentiation of Treg cells ([1]; anti-CD3/anti-CD28 mAb-coated beads, TGF-β, compared to no treatment control): enhanced differentiation of Treg cells | accumulation of Tregs cells in vitro ([1]; representative FACS plots): induces the accumulation of Tregs cells in vitro | histone H3 acetylation in the promoter and conserved non-coding sequence (CNS) I in the Foxp3 gene locus [2]: upregulated histone H3 acetylation; also recorded: enhances histone H3 acetylation in the Foxp3 gene locus | affinity for GPR109A (GPR109A): low affinity

Source: patent US10130695B2, “Compositions containing combinations of bioactive molecules derived from microbiota for treatment of disease” (priority 2013, dated 2018)
